In all, about 33,000 sequences were measured (“E-score (-0.5 to 0.5)”: median about -0.016, highest 2% from about 0.3 on). The list shows a part of the results.
molecular target: T1, Yer184c (UniProt P39961); assay: PBM E-score (8-mer binding enrichment) (E-score (-0.5 to 0.5)); higher = stronger / more preferred TF binding; conditions: protein concentration: 100 nM; construct: GST-full length
T1 sequence: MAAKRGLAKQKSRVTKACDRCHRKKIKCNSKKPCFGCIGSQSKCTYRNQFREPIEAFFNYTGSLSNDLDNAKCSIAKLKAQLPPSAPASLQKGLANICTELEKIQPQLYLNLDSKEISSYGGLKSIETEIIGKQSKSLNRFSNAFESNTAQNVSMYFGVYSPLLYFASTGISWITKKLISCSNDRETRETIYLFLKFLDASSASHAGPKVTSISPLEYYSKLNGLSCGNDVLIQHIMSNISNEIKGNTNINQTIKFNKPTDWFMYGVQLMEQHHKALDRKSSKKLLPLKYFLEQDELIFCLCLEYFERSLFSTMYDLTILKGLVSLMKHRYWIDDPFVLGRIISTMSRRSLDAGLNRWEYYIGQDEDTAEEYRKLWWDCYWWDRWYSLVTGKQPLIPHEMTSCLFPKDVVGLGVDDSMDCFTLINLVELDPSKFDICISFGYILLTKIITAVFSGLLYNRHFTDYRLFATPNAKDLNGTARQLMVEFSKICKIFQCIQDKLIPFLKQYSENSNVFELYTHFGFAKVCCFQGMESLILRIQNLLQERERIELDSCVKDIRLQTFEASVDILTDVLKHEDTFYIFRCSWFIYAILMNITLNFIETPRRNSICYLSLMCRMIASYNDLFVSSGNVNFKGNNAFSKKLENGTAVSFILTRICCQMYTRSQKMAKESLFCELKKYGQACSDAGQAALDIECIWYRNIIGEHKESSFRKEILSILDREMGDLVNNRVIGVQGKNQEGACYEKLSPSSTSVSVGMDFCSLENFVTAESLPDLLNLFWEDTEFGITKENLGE
Summary of the method: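 Bound GST-tagged yeast transcription factors, applied at about 100-200 nM to double-stranded universal all-10-mer Agilent arrays, were detected with fluorescent anti-GST. Scans were normalised with masliner. A modified Wilcoxon-Mann-Whitney statistic, the E-score, was assigned to each ungapped eight-base word pooled with its reverse complement by the Universal PBM Analysis Suite.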

Row | Sequence | PBM E-score
1 | ACCTTGCC | -0.126
2 | ACGCCAAC | -0.0437
3 | CAACACAG | 0.00627
4 | GGCGTTGA | -0.0369
5 | GTTACTGA | 0.264
6 | AGAACACG | -0.081
7 | AACGCGTA | -0.0115
8 | CGATTTAG | 0.143
9 | GGCACTAC | -0.144
10 | AAGTCGGT | 0.0483
11 | GCGCTAAA | 0.0325
12 | GTTCGTTA | 0.235
13 | CGGTTGAG | 0.197
14 | GAGTCGCC | -0.197
15 | ATGTGCGG | -0.0481
16 | ACTATTCC | 0.249
17 | GGTACTGA | -0.155
18 | CAGTATTA | 0.128
19 | ACGAGAAT | 0.0622
20 | AATTGACC | 0.0441
21 | CGCACTAG | -0.117
22 | CTATCCCC | -0.235
23 | CGCTCTAG | -0.29
24 | CAGGACGA | -0.183
25 | AGGTTCCC | -0.239

Look-ups from the entries so far.
Value of AGAACACG under PBM E-score: -0.081
Value of AAGTCGGT under PBM E-score: 0.0483
Value of ACGCCAAC under PBM E-score: -0.0437
Value of CGATTTAG under PBM E-score: 0.143
Value of GTTACTGA under PBM E-score: 0.264

(next part)

Row | Sequence | PBM E-score
26 | AAACTGCA | -0.0586
27 | AAGTAGGG | -0.0731
28 | CAACCTAC | -0.0667
29 | AACTTTTC | 0.0211
30 | AGGGCCGG | 0.212
31 | AACTGGGC | -0.189
32 | AACATCCC | 0.141
33 | GGGACGCA | -0.0959
34 | AGTAACCA | -0.0255
35 | AACCACTC | -0.108
36 | CGAGCGAC | -0.0115
37 | AAGCATCT | -0.148
38 | CCCTATCA | -0.147
39 | ACAATTGT | 0.097
40 | ACCTATGA | -0.155
41 | ACCGGAAG | 0.279
42 | AGAGCTAT | -0.157
43 | CATCCCTA | -0.083
44 | CCTACTGC | -0.15
45 | GTCTACAC | -0.0815
46 | AACTAACA | 0.155
47 | AATATCCG | 0.352
48 | GTCAGTAA | 0.00655
49 | ATTAGCCA | -0.141
50 | CCGGGGAC | 0.00683

Row | Sequence | PBM E-score
51 | GTCTATCA | 0.0292
52 | ACAGGAAA | 0.257
53 | ACCTCGAA | 0.111
54 | ACATGATA | 0.202
55 | AAGGTGTG | -0.171
56 | GGGCTTAC | -0.0659
57 | CCCCTCAA | -0.226
58 | ACAGGGCT | -0.338
59 | GTACCCCA | -0.155
60 | CTACGTCC | -0.178
61 | ACATTACC | 0.0271
62 | ACGTAGCC | -0.247
63 | ATTTAAGA | 0.0141
64 | CCCGTGGC | -0.103
65 | GCCACCTA | -0.245
66 | AATCCAAA | 0.0888
67 | GTGCAGCA | -0.0661
68 | CATGGGCA | -0.0913
69 | AATTCACG | 0.0096
70 | GCTGTTCA | 0.111
71 | ACAGAATA | 0.0927
72 | GAATACAC | -0.0036
73 | GCAAGTGA | -0.117
74 | TAGGACAA | -0.0352
75 | AGGTTACA | -0.077

Row | Sequence | PBM E-score
76 | ACTGGCGA | -0.381
77 | CACTACCC | -0.135
78 | ACGACATC | -0.079
79 | AATGGAAG | 0.00111
80 | CTGCCGAA | 0.297
81 | ACACCGAG | 0.148
82 | CCTGGAAG | -0.251
83 | CAGGATCG | -0.0543
84 | AAAGAGAG | -0.165
85 | CCCGGAAA | 0.396
86 | ACTAGCGC | -0.159
87 | ACTAATCA | 0.0915
88 | CAATTTCG | 0.0214
89 | TCATATCA | 0.0786
90 | CCATCCAC | -0.19
91 | AACTGATC | -0.0867
92 | CCGCAACG | 0.226
93 | ATTATCAA | 0.182
94 | ATAGGGTG | -0.214
95 | GTTGGATA | 0.0184
96 | AGTCATCC | -0.0833
97 | CATAAGGA | -0.0735
98 | GCGCGTAC | -0.00653
99 | CAGCCCGG | 0.299
100 | ACTCTTGG | -0.186

Row | Sequence | PBM E-score
101 | CTCCGACA | 0.121
102 | CCCATCGG | 0.137
103 | AGGCTCTA | -0.242
104 | TCAAGAGA | 0.0301
105 | ATCGCTCC | -0.0866
106 | AAGCCTTG | -0.165
107 | ACGTAAGT | -0.14
108 | CCTATCCA | -0.177
109 | CCGGAGCC | 0.289
110 | GCCTGGCC | -0.12
111 | ATACGATA | 0.0832
112 | ACCTTGAA | -0.136
113 | GACTATGC | -0.0813
114 | ACTATGAC | -0.147
115 | ATTTGTCG | 0.161
116 | AAATTACG | 0.0604
117 | ACGAACTG | -0.0655
118 | AGGGATGC | -0.459
119 | CAAGAGGG | -0.272
120 | ACCACCCG | -0.0892
121 | AACGTATG | -0.184
122 | AGGAGTTA | -0.0333
123 | TACGGGAA | 0.142
124 | CGGGAGAA | 0.117
125 | ACCTAGTC | -0.244

Row | Sequence | PBM E-score
126 | AGGGCTAT | -0.414
127 | CCTCATGA | -0.0304
128 | TCACATCA | 0.00032
129 | GACCACCC | -0.312
130 | ATCCGTTG | 0.265
131 | TACACGAA | 0.229
132 | ATGGATGA | -0.109
133 | AAAACCGA | 0.169
134 | AGCAGGGA | -0.124
135 | ATTAATCA | 0.164
136 | TCATGACA | 0.135
137 | GAACGACC | -0.218
138 | CCTGAAGA | 0.0305
139 | TCCCGTCA | -0.002
140 | CTCCACAG | -0.298
141 | AATCGAGG | 0.119
142 | AATGTCTG | 0.0283
143 | CGCGATGA | 0.0277
144 | AATAGAGT | -0.116
145 | CAAGTGAG | -0.182
146 | CAATGTAA | 0.174
147 | TAAAACGA | -0.00919
148 | ACAACCAG | 0.103
149 | ATGTACCC | -0.114
150 | CTACACGA | 0.112

Row | Sequence | PBM E-score
151 | AAACATCC | 0.261
152 | ATGGCAAA | 0.0966
153 | AACATGAG | -0.0128
154 | CGCATGAA | 0.0183
155 | AGAAGAAC | -0.0703
156 | AATGTATC | 0.149
157 | CACACACA | 0.0185
158 | AGGCACAT | -0.0764
159 | GCGTCGAA | 0.0873
160 | CCTGCGAA | -0.0657
161 | CAGCAGAA | 0.0921
162 | CCCATCCC | -0.229
163 | CTAACTAG | 0.134
164 | TGTGGTAA | 0.137
165 | AGTCACAT | 0.0228
166 | CTCACAAC | 0.108
167 | TAATCGGA | 0.248
168 | ATCCTCGA | 0.02
169 | CGTTAAGA | -0.042
170 | ACGGAAAA | 0.309
171 | CGCGAGAG | -0.0648
172 | AACCGGAC | 0.212

Four records drawn at random from those above:
Row | Sequence | PBM E-score
162 | CCCATCCC | -0.229
168 | ATCCTCGA | 0.02
169 | CGTTAAGA | -0.042
171 | CGCGAGAG | -0.0648

Source: the supplement of paper PMC3334620
